PubChem BioAssay AID602196 – INSERM – 2012
Assay: 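Genes whose knock-down alters cisplatin killing of lung cancer cells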. Cell system: human A549 lung cancer cells. Knock-down reagent: siRNA pair against human genes. Duration: 48 h transfection before cisplatin; time from cisplatin to read-out not stated. Conditions: cisplatin at a dose killing half of control-siRNA cells; exact dose and duration not given. Measured: 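Shift in cisplatin death relative to control siRNA, from -50 (all cells die) to +50 (no cells die); siRNAs harmful on their own scored 0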. Reading the numbers: two-siRNA summed score (-2 to +2): higher = both siRNAs protect from cisplatin killing; -2 means both sensitise; mean protection from cisplatin (shift in death) and protection from cisplatin (shift in death), siRNA C and protection from cisplatin (shift in death), siRNA D: higher = protection from cisplatin killing. Rule for the call: 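siRNAs harmful alone (LDH or WST-1) get 0; others get +1 for less and -1 for more cisplatin killing; genes are active when the two siRNAs give the same sign, summing to ±2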. Meaning of the calls: active = both siRNAs shift cisplatin killing the same way; inactive = no consistent shift, or siRNA harmful alone.
This is a random part of about 23,000 reagents tested. In the full data, 455 (2%) are marked active. 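Active includes both protection and sensitisation; some change values fall well beyond the stated -50 to +50 range.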 Reagent sequences are not shown. Not stated in the record: the amount of reagent.

target gene	two-siRNA summed score (-2 to +2)	mean protection from cisplatin (shift in death) (%)	protection from cisplatin (shift in death), siRNA C (%)	protection from cisplatin (shift in death), siRNA D (%)	call
IFNA16	0	-4.5	0.7	-9.7	inactive
SLC30A8	0	4.3	-1.9	10.6	inactive
RNF39	0	15.1	18	12.2	inactive
CD81	-1	-6.3	-21.4	8.8	inactive
TVP23C	1	16.2	17.7	14.7	inactive
ODF1	1	12.4	10	14.9	inactive
LOC442513	1	13.4	9.1	17.7	inactive
OSER1	0	2.4	0.9	3.9	inactive
AJUBA	1	12.3	13.3	11.4	inactive
PARD6A	-1	-14.6	-8.3	-20.9	inactive
DLG1	0	10.5	11	9.9	inactive
TMEM129	0	9.5	9.2	9.8	inactive
USP36	0	3.9	-7.8	15.6	inactive
IGFBP7-AS1	1	11.8	8.6	15.1	inactive
ZC3H12B	0	11.3	12.8	9.9	inactive
LOC440546	1	17.4	18.2	16.6	inactive
OVCH2	1	8.9	-3.8	21.6	inactive
ABCC12	0	13.6	5.8	21.3	inactive
B3GALNT1	1	13.4	15.6	11.1	inactive
HVCN1	1	7.2	-5.4	19.7	inactive
YWHAZ	-1	-5.4	1.8	-12.6	inactive
SLC35A1	0	12	17.2	6.9	inactive
IHO1	0	6.9	4.5	9.2	inactive
DGKQ	2	23.9	29.2	18.7	active
LOC387720 (retired record)	1	17.2	12.9	21.4	inactive
TMEM258	-1	-8.2	-3	-13.5	inactive
RMND1	0	8.8	3	14.6	inactive
TTI2	-1	-8.7	-0.6	-16.8	inactive
TBPL2	1	14.9	16.9	12.9	inactive
DKFZp434I1117	0	-0.2	-5.6	5.2	inactive
LINC00664	0	9.3	14.1	4.5	inactive
LOC440191	0	14.6	14.7	14.5	inactive
RGS7	0	8.7	8	9.4	inactive
STK10	0	-0.6	12.9	-14	inactive
FLII	1	2.7	-10.4	15.8	inactive
RGS9BP	0	17.3	3.7	31	inactive
ARHGAP12	0	-0.3	16.3	-16.9	inactive
CAMSAP3	0	1.8	-0.5	4.2	inactive
DDX6	0	0.7	9.9	-8.6	inactive
MED9	0	-4	-8	0	inactive
RPS28	0	20.3	18.3	22.3	inactive
LOC441423	0	8.6	7.2	10	inactive
HAPLN2	0	7.3	9.2	5.3	inactive
DCAF1	0	19.6	30.3	8.8	inactive
CLEC14A	0	-13.3	-13.8	-12.8	inactive
UGT1A5	0	4.6	3.5	5.7	inactive
SPX	0	2.5	-5	10	inactive
LOC340148	1	9.5	5.9	13.1	inactive
RRP1	0	5.9	-3.9	15.7	inactive
GJD2	0	7.3	11.9	2.7	inactive
MYORG	-1	-27.8	-39.2	-16.4	inactive
GALNT12	0	13.1	10	16.1	inactive
LILRB2	0	4.5	2.1	7	inactive
TMT1A	-1	-7.8	-14	-1.7	inactive
MRPS16	0	1.7	0	3.4	inactive
LOC201484	0	16	6.7	25.4	inactive
LOC339771	0	7.3	0.7	13.8	inactive

Limited to “two-siRNA summed score (-2 to +2)” (4 entries from above):
TVP23C	1
ODF1	1
LOC442513	1
OSER1	0
